Results deposited as PubChem BioAssay AID504808 (Drosophila RNAi Screening Center, 2011).

Aim: 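Fly genes required to hold E2F transcription in check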 (primary screen)
Cells: Drosophila S2 cells
Reagent: long dsRNA against Drosophila genes
Measurement: 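Dual luciferase plate measurements; E2F-specific signal taken as firefly over Renilla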
Direction: E2F firefly: higher = more E2F reporter activity; Renilla normaliser: higher = more normaliser reporter signal
Rule for the call: 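Called active if the normalised E2F reporter went up by over 50%; the cutoff is arbitrary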
The screen tested about 21,000 reagents; below is a random part of those with a known target gene and a result. Over the whole deposit, 18 (0.084%) were called active. 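Raw counts without plate normalisation, one of two replicates; the ratio scores behind the calls were not deposited.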 Reagents against one gene are numbered here. The record does not give: the amount of reagent, the time to read-out.

The opening 4 records, ahead of the listing:
target	dsRNA no.	E2F firefly, rep 1	Renilla normaliser, rep 1	Call
Lcp65Ac (GeneID 38708)	1	1.03e5	3943	inactive
anchor (GeneID 39965)	1	78484	3764	inactive
CG11790 (GeneID 42999)	1	67044	4353	inactive
IRSp53 (GeneID 39258)	1	1.18e5	7432	inactive

The list itself, from the start:
target	dsRNA no.	E2F firefly, rep 1	Renilla normaliser, rep 1	Call
Lcp65Ac (GeneID 38708)	1	1.03e5	3943	inactive
anchor (GeneID 39965)	1	78484	3764	inactive
CG11790 (GeneID 42999)	1	67044	4353	inactive
IRSp53 (GeneID 39258)	1	1.18e5	7432	inactive
CG2218 (GeneID 43611)	1	1687	936	inactive
Ggt-1 (GeneID 32839)	1	1.43e5	5403	inactive
crp (GeneID 34956)	1	83739	4365	inactive
Trf (GeneID 34102)	1	1.46e5	6597	inactive
CG9616 (GeneID 41731)	1	1.07e5	5621	inactive
ringer (GeneID 39813)	1	1.81e5	8996	inactive
CG3473 (GeneID 34849)	1	1.05e5	4419	inactive
Tim17b1 (GeneID 40635)	1	1.16e5	5267	inactive
ifc (GeneID 33836)	1	86834	3871	inactive
CG17508 (GeneID 49893)	1	1.01e5	4096	inactive
CG5002 (GeneID 37025)	1	85450	3179	inactive
CG11668 (GeneID 41606)	1	1.11e5	6012	inactive
Stt3B (GeneID 43005)	1	1.17e5	5671	inactive
Hsl (GeneID 37289)	1	73455	3367	inactive
chinmo (GeneID 33343)	1	80500	3860	inactive
chinmo (GeneID 33343)	2	1.36e5	4763	inactive
chinmo (GeneID 33343)	3	1.56e5	5863	inactive
CG13245 (GeneID 50456)	1	77887	3555	inactive
CG13898 (GeneID 38092)	1	94137	3938	inactive
CG43316 (GeneID 36326)	1	99651	4120	inactive
CG43316 (GeneID 36326)	2	1.07e5	4115	inactive
Oatp33Ea (GeneID 34660)	1	62267	3383	inactive
crn (GeneID 31208)	1	72877	6439	inactive
crn (GeneID 31208)	2	75012	5886	inactive
crn (GeneID 31208)	3	1061	888	inactive
CG15199 (GeneID 32051)	1	1.25e5	6255	inactive
Dph4 (GeneID 40686)	1	1.39e5	7077	inactive
CG13884 (GeneID 38064)	1	89685	3932	inactive
CG13908 (retired record) (GeneID 38110)	1	1.07e5	4203	inactive
CG16879 (retired record) (GeneID 34827)	1	97864	4428	inactive
